Experimental data taken from PMC9663461.

Target: T1, Toll-like receptor 4 (rat (endogenous in intestinal tissue)) (UniProt Q9QX05)
T1 sequence: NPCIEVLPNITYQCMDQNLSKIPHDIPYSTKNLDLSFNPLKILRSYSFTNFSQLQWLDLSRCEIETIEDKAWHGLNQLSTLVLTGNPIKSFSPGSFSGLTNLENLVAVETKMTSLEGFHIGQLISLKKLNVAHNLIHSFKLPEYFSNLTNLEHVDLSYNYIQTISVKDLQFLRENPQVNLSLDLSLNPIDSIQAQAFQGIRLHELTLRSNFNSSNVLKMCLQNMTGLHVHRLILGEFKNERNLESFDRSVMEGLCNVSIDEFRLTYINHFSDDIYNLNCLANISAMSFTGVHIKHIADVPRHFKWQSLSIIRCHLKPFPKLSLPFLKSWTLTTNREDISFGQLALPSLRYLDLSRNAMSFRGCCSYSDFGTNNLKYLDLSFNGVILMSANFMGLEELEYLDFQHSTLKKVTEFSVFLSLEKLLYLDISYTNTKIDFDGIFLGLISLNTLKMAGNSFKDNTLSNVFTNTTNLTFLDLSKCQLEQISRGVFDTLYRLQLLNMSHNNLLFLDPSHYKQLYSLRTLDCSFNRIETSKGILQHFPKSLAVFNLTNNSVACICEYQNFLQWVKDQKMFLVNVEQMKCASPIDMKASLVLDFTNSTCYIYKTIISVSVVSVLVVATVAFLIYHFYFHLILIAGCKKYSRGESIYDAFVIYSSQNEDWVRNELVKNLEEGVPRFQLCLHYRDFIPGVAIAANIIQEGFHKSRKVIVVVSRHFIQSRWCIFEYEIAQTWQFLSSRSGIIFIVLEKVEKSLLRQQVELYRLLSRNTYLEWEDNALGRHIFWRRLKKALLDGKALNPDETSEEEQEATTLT
Assay: co-IP; intestinal tissue lysates (300-500 ug) of neonatal rats (control, NEC, NEC pretreated with the MD2 inhibitor MD2-IN-1) incubated overnight at 4°C with primary TLR4 antibody, Protein A/G Sepharose beads, eluted in SDS loading buffer, western blot for MD2

Substance: Myeloid differentiation protein 2 (rat (endogenous in intestinal tissue))
- binding: binds

Results are given in words; binding and its absence hold for the method and conditions named. Binding seen in cells or lysates may run through a third protein. A result given as binding can be weak or reduced; the word gives no strength.
